Laboratory results taken from publication PMC12137620, “Targeting the MDK/c‐Myc complex to overcome temozolomide resistance in glioma” (Clinical and Translational Medicine, 2025).
These are yes or no findings as the source states them, for the method shown. In cells and extracts the contact can be indirect. Some binding calls cover weakened binding; strength is not graded here. For some assays here: Tags and fused reporters may be left off the sequences shown.

The chains behind the UniProt entries cited, without tags or fusion partners.
UniProt P01106: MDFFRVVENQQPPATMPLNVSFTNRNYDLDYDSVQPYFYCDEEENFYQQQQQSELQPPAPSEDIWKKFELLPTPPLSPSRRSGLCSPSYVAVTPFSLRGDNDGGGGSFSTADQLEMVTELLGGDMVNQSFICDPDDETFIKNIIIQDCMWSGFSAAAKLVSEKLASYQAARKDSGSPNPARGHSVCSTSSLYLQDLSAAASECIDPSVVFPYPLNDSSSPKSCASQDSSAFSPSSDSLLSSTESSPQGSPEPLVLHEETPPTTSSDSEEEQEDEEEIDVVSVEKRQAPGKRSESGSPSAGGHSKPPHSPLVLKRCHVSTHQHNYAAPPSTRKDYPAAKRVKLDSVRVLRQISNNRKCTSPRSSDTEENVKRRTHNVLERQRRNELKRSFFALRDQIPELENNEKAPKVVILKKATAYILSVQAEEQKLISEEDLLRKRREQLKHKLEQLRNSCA

Columns and labels:
[1] = target: T1, MDK, endogenous in glioma cells (human (endogenous in SF126, U118MG, U251)) (UniProt P21741); assay: proximity ligation; Duolink In Situ PLA; fixed, permeabilised SF126, U118MG and U251 cells; primary antibodies against MDK and c-Myc; endogenous proteins
T1 sequence: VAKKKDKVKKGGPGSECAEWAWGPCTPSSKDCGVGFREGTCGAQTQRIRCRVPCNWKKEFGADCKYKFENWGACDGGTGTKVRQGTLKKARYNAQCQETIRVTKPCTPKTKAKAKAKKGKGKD

[2] = target: T2, FLAG-MDK (midkine) (human) (UniProt P21741); assay: co-IP; lysates (IP lysis buffer) of U118MG, SF126, U251 and U87 cells overexpressing MDK; MDK or c-Myc antibody or control IgG on protein A/G magnetic beads, 2 h at 4°C; Western blot
T2 sequence: T1 sequence

c-Myc, endogenous in glioma cells (from UniProt P01106 1-454)
binding [1]: binds | binding [2]: binds
